The results in this text go back to publication PMC9655011.

Sequences of proteins named here, by UniProt entry; tags and fusion partners are left off. Residues count along the entry.
UniProt P03950, residues 25-147: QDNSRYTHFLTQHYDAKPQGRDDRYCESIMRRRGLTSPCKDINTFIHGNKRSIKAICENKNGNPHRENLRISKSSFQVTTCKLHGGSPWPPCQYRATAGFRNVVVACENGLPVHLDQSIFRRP

The assay addresses C-terminally His-tagged ANG (angiogenin) (human) (UniProt P03950). Briefly: co-IP; ANG-His precipitated from U2OS cytoplasmic lysate (0.5% NP-40 in PBS, diluted 10 times with 0.1% NP-40 in PBS) with anti-6xHistidine antibody on Protein G Sepharose, room temperature 1 h; Western blot for RNH1 and RTCB; non-stress cells, and cells treated 2 h with sodium arsenite 500 uM, H2O2 1 mM, menadione 100 uM, with or without N-acetyl-L-cysteine 5 mM. (A western blot detects proteins with antibodies after separation by electrophoresis.)

Results are given in words; binding and its absence hold for the method and conditions named. In cells and extracts the contact can be indirect.

B1: RTCB (enzyme, UniProt Q9Y3I0 1-505)
chain: MSRSYNDELQFLEKINKNCWRIKKGFVPNMQVEGVFYVNDALEKLMFEELRNACRGGGVGGFLPAMKQIGNVAALPGIVHRSIGLPDVHSGYGFAIGNMAAFDMNDPEAVVSPGGVGFDINCGVRLLRTNLDESDVQPVKEQLAQAMFDHIPVGVGSKGVIPMNAKDLEEALEMGVDWSLREGYAWAEDKEHCEEYGRMLQADPNKVSARAKKRGLPQLGTLGAGNHYAEIQVVDEIFNEYAAKKMGIDHKGQVCVMIHSGSRGLGHQVATDALVAMEKAMKRDKIIVNDRQLACARIASPEGQDYLKGMAAAGNYAWVNRSSMTFLTRQAFAKVFNTTPDDLDLHVIYDVSHNIAKVEQHVVDGKERTLLVHRKGSTRAFPPHHPLIAVDYQLTGQPVLIGGTMGTCSYVLTGTEQGMTETFGTTCHGAGRALSRAKSRRNLDFQDVLDKLADMGIAIRVASPKLVMEEAPESYKNVTDVVNTCHDAGISKKAIKLRPIAVIKG
In the case of B1, the binding result is listed as “no binding”.
